# Laboratory results published in patent publication US8735415B2, “Acid addition salts of (3,5-Bis trifluoromethyl)-N-[4-methyl-3-(4-pyridin-3yl-pyrimidin-2ylamino)-phenyl]-benzamide” (Natco Pharma Limited, priority 2004, dated 2014).
# Columns and labels:
# [1] = test system: K562 cell line, chronic myelogenous leukemia (CML); test: Activity in cell culture, K562 cell proliferation; type: cell-based; details: Homo sapiens, K562, 72 h, K562, 0.312×10^5 cells/ml, 10 μM to 0.156 μM
# Text: (§1) Imatinib was used as standard.
# [2] = test system: T315I cell line, chronic myelogenous leukemia (CML) mutant; test: Activity in cell culture, T315I cell proliferation; type: cell-based; details: 72 h, 0.625×10^5 cells/ml, 10 μM to 0.156 μM
# Text: as §1
smiles,measurement,setting,value
"Cc1ccc(NC(=O)c2ccc(CN3CCN(C)CC3)cc2)cc1Nc1nccc(-c2cccnc2)n1 [Imatinib, reference compound]",IC50,[1],407 nM
same,IC50,[2],448 nM
